# Test system: 5-HT, rat fundus strip
# Assay: 5-HT antagonism, rat fundus strip
# Conditions: 10 min, read-out: 5HT rat-fundus-strip IC50
# Description: 5-HT antagonism, rat fundus strip
# 5-hydroxytryptamine (5-HT).
# Rats are killed by a blow on the head and exsanguinated. The stomach fundus is removed and carefully cleaned with Krebs solution at 30° C. The fundus is then stretched over a rounded end of a plastic rod about the thickness of a pencil, whereby the longitudinal direction of the muscle fibers is visible. The fundus is halved by carefully cutting in the central line and in the direction of these fibres. Along this incision two strips with a length of 15-25 mm and with width 1.5-2.5 mm are cut, one from each half of the fundus. The mucosa is then carefully removed. A thread is attached to each end of a strip. One thread is fixed to a pin in the bottom of the organ bath and the other thread is fixed to an isotonic transducer. The strip is kept under a tone of 1.5 to 2.0 g. […] Concentration response curves to 5-HT are obtained by adding 5-HT to the bath in increasing concentrations (0.1 ml of 10^-9 M resulting in 1.0×10^-11 M in the bath, 0.2 ml of 10^-9 M resulting in 3.0×10^-11 M, 0.1 ml of 10^-8 M resulting in about 1×10^-10 M, 0.2 ml of 10^-8 M resulting in about 3×10^-10 M--0.2 ml of 10^-4 resulting in about 3×10^-6 M in the bath). […] From the control concentration effect curve the Km for 5-HT is calculated.
# The results are recorded as mean percentage inhibition. […]
structure (smiles),measurement,value
"OCCN1CCN(CCCN2c3ccccc3Sc3ccc(C(F)(F)F)cc32)CC1 [Fluphenazine, reference compound]",IC50,> 5 µM
